These are yes or no findings as the source states them, for the method shown. For part of these data: Binding seen in cells or lysates may run through a third protein. Values belong to the molecule of their own block, whether it stands above or below them.
Columns and labels:
[1] = target: T1, Monophosphoryl ITIM peptide of PD-1 (ITIM-pY223) (human); experiment: condition: 320 nM (the maximum SHP-2 concentration tested); SPR; Biacore 3000; phosphopeptide immobilised on a CM5 chip by amine coupling; SHP-2-full-length at 0, 20, 40, 80, 160, 320 nM; HBS-P with 6.6 mM phosphate and 10 mM DTT, pH 7.4; 900 s association, 900 s dissociation; both purified
T1 sequence (peptide, phosphotyrosine (pY) at PD-1 Y223, position 14 of the peptide): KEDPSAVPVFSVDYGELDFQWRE

[2] = target: PD-1 Y248F NanoBiT fusions in HEK-293 cells with kinase-active Fyn (human) (UniProt Q15116); experiment: split reporter; NanoBiT in live HEK-293 cells co-transfected with PD-1-LgBiT, PD-1-SmBiT, SHP-2 and Fyn (kinase active or inactive); luminescence 30 h after transfection
[3] = target: T2, t-SHP-2 (SHP-2 amino acids 1-225, tandem N-SH2 and C-SH2 domains) (UniProt Q06124); experiment: native gel or EMSA; 2 uM t-SHP-2 mixed with phosphopeptide at various molar ratios in 50 mM HEPES, 100 mM NaCl, pH 7.4, 1 h at room temperature; Native PAGE at 4 C, 8-16% Tris-Glycine gel, Coomassie stain; both purified
T2 sequence: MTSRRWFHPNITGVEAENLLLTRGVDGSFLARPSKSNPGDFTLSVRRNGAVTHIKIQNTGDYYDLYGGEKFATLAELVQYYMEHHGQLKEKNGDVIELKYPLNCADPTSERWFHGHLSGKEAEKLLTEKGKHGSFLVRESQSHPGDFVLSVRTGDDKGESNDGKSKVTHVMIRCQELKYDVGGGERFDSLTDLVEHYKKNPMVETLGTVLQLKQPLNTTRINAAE

binding [1]: no binding
Molecule: SHP-2 wild-type full-length, purified recombinant protein (from UniProt Q06124 1-593) (enzyme)

binding [2]: no binding
Molecule: PD-1 Y248F NanoBiT fusions in HEK-293 cells with kinase-active Fyn (from UniProt Q15116 25-288) (receptor)

binding [3]: no binding
Molecule: KEDPSAVPVFSVDYGELDFQWRE (phosphotyrosine (pY) at PD-1 Y223, position 14 of the peptide) [Monophosphoryl ITIM peptide of PD-1 (ITIM-pY223)]

From paper PMC7078208, “Interaction of SHP-2 SH2 domains with PD-1 ITSM induces PD-1 dimerization and SHP-2 activation” (Communications Biology, 2020)
